The record followed here is article PMC6339880.

Results are given in words; binding and its absence hold for the method and conditions named. Binding seen in cells or lysates may run through a third protein. A yes stands for co-enrichment or nearness to the bait. Other partners may have been found.

The labels stand for the following.
T1: Strep-LpxC (E. coli) (UniProt P0A725)
T1 sequence: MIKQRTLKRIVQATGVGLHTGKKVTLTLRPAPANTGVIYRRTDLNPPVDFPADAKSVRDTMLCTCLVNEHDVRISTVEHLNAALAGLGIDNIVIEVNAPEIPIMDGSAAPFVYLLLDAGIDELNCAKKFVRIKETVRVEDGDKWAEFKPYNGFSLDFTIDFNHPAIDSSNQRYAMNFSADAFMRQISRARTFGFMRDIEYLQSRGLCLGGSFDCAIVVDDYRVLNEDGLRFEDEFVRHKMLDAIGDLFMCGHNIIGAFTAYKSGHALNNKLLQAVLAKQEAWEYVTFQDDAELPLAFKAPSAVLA

B1: PssA (enzyme, UniProt P23830 1-451)
chain: MLSKFKRNKHQQHLAQLPKISQSVDDVDFFYAPADFRETLLEKIASAKQRICIVALYLEQDDGGKGILNALYEAKRQRPELDVRVLVDWHRAQRGRIGAAASNTNADWYCRMAQENPGVDVPVYGVPINTREALGVLHFKGFIIDDSVLYSGASLNDVYLHQHDKYRYDRYHLIRNRKMSDIMFEWVTQNIMNGRGVNRLDDVNRPKSPEIKNDIRLFRQELRDAAYHFQGDADNDQLSVTPLVGLGKSSLLNKTIFHLMPCAEQKLTICTPYFNLPAILVRNIIQLLREGKKVEIIVGDKTANDFYIPEDEPFKIIGALPYLYEINLRRFLSRLQYYVNTDQLVVRLWKDDDNTYHLKGMWVDDKWMLITGNNLNPRAWRLDLENAILIHDPQLELAPQREKELELIREHTTIVKHYRDLQSIADYPVKVRKLIRRLRRIRIDRLISRIL
B2: AccD (enzyme, UniProt P0A9Q5 1-304)
chain: MSWIERIKSNITPTRKASIPEGVWTKCDSCGQVLYRAELERNLEVCPKCDHHMRMTARNRLHSLLDEGSLVELGSELEPKDVLKFRDSKKYKDRLASAQKETGEKDALVVMKGTLYGMPVVAAAFEFAFMGGSMGSVVGARFVRAVEQALEDNCPLICFSASGGARMQEALMSLMQMAKTSAALAKMQERGLPYISVLTDPTMGGVSASFAMLGDLNIAEPKALIGFAGPRVIEQTVREKLPPGFQRSEFLIEKGAIDMIVRRPEMRLKLASILAKLMNLPAPNPEAPREGVVVPPVPDQEPEA
B3: AccA (enzyme, UniProt P0ABD5 1-319)
chain: MSLNFLDFEQPIAELEAKIDSLTAVSRQDEKLDINIDEEVHRLREKSVELTRKIFADLGAWQIAQLARHPQRPYTLDYVRLAFDEFDELAGDRAYADDKAIVGGIARLDGRPVMIIGHQKGRETKEKIRRNFGMPAPEGYRKALRLMQMAERFKMPIITFIDTPGAYPGVGAEERGQSEAIARNLREMSRLGVPVVCTVIGEGGSGGALAIGVGDKVNMLQYSTYSVISPEGCASILWKSADKAPLAAEAMGIIAPRLKELKLIDSIIPEPLGGAHRNPEAMAASLKAQLLADLADLDVLSTEDLKNRRYQRLMSYGYA
B4: ArnC (enzyme, UniProt P77757 1-322)
chain: MFEIHPVKKVSVVIPVYNEQESLPELIRRTTTACESLGKEYEILLIDDGSSDNSAHMLVEASQAENSHIVSILLNRNYGQHSAIMAGFSHVTGDLIITLDADLQNPPEEIPRLVAKADEGYDVVGTVRQNRQDSWFRKTASKMINRLIQRTTGKAMGDYGCMLRAYRRHIVDAMLHCHERSTFIPILANIFARRAIEIPVHHAEREFGESKYSFMRLINLMYDLVTCLTTTPLRMLSLLGSIIAIGGFSIAVLLVILRLTFGPQWAAEGVFMLFAVLFTFIGAQFIGMGLLGEYIGRIYTDVRARPRYFVQQVIRPSSKENE
B5: PgpC (enzyme, UniProt P0AD42 1-211)
chain: MATHERRVVFFDLDGTLHQQDMFGSFLRYLLRRQPLNALLVLPLLPIIAIALLIKGRAARWPMSLLLWGCTFGHSEARLQTLQADFVRWFRDNVTAFPLVQERLTTYLLSSDADIWLITGSPQPLVEAVYFDTPWLPRVNLIASQIQRGYGGWVLTMRCLGHEKVAQLERKIGTPLRLYSGYSDSNQDNPLLYFCQHRWRVTPRGELQQLE
B6: PlsB (enzyme, UniProt P0A7A7 1-807)
chain: MSGWPRIYYKLLNLPLSILVKSKSIPADPAPELGLDTSRPIMYVLPYNSKADLLTLRAQCLAHDLPDPLEPLEIDGTLLPRYVFIHGGPRVFTYYTPKEESIKLFHDYLDLHRSNPNLDVQMVPVSVMFGRAPGREKGEVNPPLRMLNGVQKFFAVLWLGRDSFVRFSPSVSLRRMADEHGTDKTIAQKLARVARMHFARQRLAAVGPRLPARQDLFNKLLASRAIAKAVEDEARSKKISHEKAQQNAIALMEEIAANFSYEMIRLTDRILGFTWNRLYQGINVHNAERVRQLAHDGHELVYVPCHRSHMDYLLLSYVLYHQGLVPPHIAAGINLNFWPAGPIFRRLGAFFIRRTFKGNKLYSTVFREYLGELFSRGYSVEYFVEGGRSRTGRLLDPKTGTLSMTIQAMLRGGTRPITLIPIYIGYEHVMEVGTYAKELRGATKEKESLPQMLRGLSKLRNLGQGYVNFGEPMPLMTYLNQHVPDWRESIDPIEAVRPAWLTPTVNNIAADLMVRINNAGAANAMNLCCTALLASRQRSLTREQLTEQLNCYLDLMRNVPYSTDSTVPSASASELIDHALQMNKFEVEKDTIGDIIILPREQAVLMTYYRNNIAHMLVLPSLMAAIVTQHRHISRDVLMEHVNVLYPMLKAELFLRWDRDELPDVIDALANEMQRQGLITLQDDELHINPAHSRTLQLLAAGARETLQRYAITFWLLSANPSINRGTLEKESRTVAQRLSVLHGINAPEFFDKAVFSSLVLTLRDEGYISDSGDAEPAETMKVYQLLAELITSDVRLTIESATQGEG
B7: ArnB (enzyme, UniProt P77690 1-385)
chain: MAEGKAMSEFLPFSRPAMGVEELAAVKEVLESGWITTGPKNQALEQAFCQLTGNQHAIAVSSATAGMHITLMALKIGKGDEVITPSLTWVSTLNMISLLGATPVMVDVDRDTLMVTPEAIESAITPRTKAIIPVHYAGAPADIDAIRAIGERYGIAVIEDAAHAVGTYYKGRHIGAKGTAIFSFHAIKNITCAEGGLIVTDNENLARQLRMLKFHGLGVDAYDRQTWGRAPQAEVLTPGYKYNLTDINAAIALTQLVKLEHLNTRRREIAQQYQQALAALPFQPLSLPAWPHVHAWHLFIIRVDEQRCGISRDALMEALKERGIGTGLHFRAAHTQKYYRERFPTLSLPNTEWNSERICSLPLFPDMTTADADHVITALQQLAGQ
B8: FabI (enzyme, UniProt P0AEK4 1-262)
chain: MGFLSGKRILVTGVASKLSIAYGIAQAMHREGAELAFTYQNDKLKGRVEEFAAQLGSDIVLQCDVAEDASIDTMFAELGKVWPKFDGFVHSIGFAPGDQLDGDYVNAVTREGFKIAHDISSYSFVAMAKACRSMLNPGSALLTLSYLGAERAIPNYNVMGLAKASLEANVRYMANAMGPEGVRVNAISAGPIRTLAASGIKDFRKMLAHCEAVTPIRRTVTIEDVGNSAAFLCSDLSAGISGEVVHVDGGFSIAAMNELELK
B9: FabG (enzyme, UniProt P0AEK2 1-244)
chain: MNFEGKIALVTGASRGIGRAIAETLAARGAKVIGTATSENGAQAISDYLGANGKGLMLNVTDPASIESVLEKIRAEFGEVDILVNNAGITRDNLLMRMKDEEWNDIIETNLSSVFRLSKAVMRAMMKKRHGRIITIGSVVGTMGNGGQANYAAAKAGLIGFSKSLAREVASRGITVNVVAPGFIETDMTRALSDDQRAGILAQVPAGRLGGAQEIANAVAFLASDEAAYITGETLHVNGGMYMV
B10: PyrH (enzyme, UniProt P0A7E9 1-241)
chain: MATNAKPVYKRILLKLSGEALQGTEGFGIDASILDRMAQEIKELVELGIQVGVVIGGGNLFRGAGLAKAGMNRVVGDHMGMLATVMNGLAMRDALHRAYVNARLMSAIPLNGVCDSYSWAEAISLLRNNRVVILSAGTGNPFFTTDSAACLRGIEIEADVVLKATKVDGVFTADPAKDPTATMYEQLTYSEVLEKELKVMDLAAFTLARDHKLPIRVFNMNKPGALRRVVMGEKEGTLITE
B11: HldD (enzyme, UniProt P67910 1-310)
chain: MIIVTGGAGFIGSNIVKALNDKGITDILVVDNLKDGTKFVNLVDLNIADYMDKEDFLIQIMAGEEFGDVEAIFHEGACSSTTEWDGKYMMDNNYQYSKELLHYCLEREIPFLYASSAATYGGRTSDFIESREYEKPLNVYGYSKFLFDEYVRQILPEANSQIVGFRYFNVYGPREGHKGSMASVAFHLNTQLNNGESPKLFEGSENFKRDFVYVGDVADVNLWFLENGVSGIFNLGTGRAESFQAVADATLAYHKKGQIEYIPFPDKLKGRYQAFTQADLTNLRAAGYDKPFKTVAEGVTEYMAWLNRDA
B12: BasS (enzyme, UniProt P30844 1-363)
chain: MHFLRRPISLRQRLILTIGAILLVFELISVFWLWHESTEQIQLFEQALRDNRNNDRHIMREIREAVASLIVPGVFMVSLTLFICYQAVRRITRPLAELQKELEARTADNLTPIAIHSATLEIEAVVSALNDLVSRLTSTLDNERLFTADVAHELRTPLAGVRLHLELLAKTHHIDVAPLVARLDQMMESVSQLLQLARAGQSFSSGNYQHVKLLEDVILPSYDELSTMLDQRQQTLLLPESAADITVQGDATLLRMLLRNLVENAHRYSPQGSNIMIKLQEDDGAVMAVEDEGPGIDESKCGELSKAFVRMDSRYGGIGLGLSIVSRITQLHHGQFFLQNRQETSGTRAWVRLKKDQYVANQI
B13: PgsA (enzyme, UniProt P0ABF8 1-182)
chain: MQFNIPTLLTLFRVILIPFFVLVFYLPVTWSPFAAALIFCVAAVTDWFDGFLARRWNQSTRFGAFLDPVADKVLVAIAMVLVTEHYHSWWVTLPAATMIAREIIISALREWMAELGKRSSVAVSWIGKVKTTAQMVALAWLLWRPNIWVEYAGIALFFVAAVLTLWSMLQYLSAARADLLDQ
B14: FabA (enzyme, UniProt P0A6Q3 1-172)
chain: MVDKRESYTKEDLLASGRGELFGAKGPQLPAPNMLMMDRVVKMTETGGNFDKGYVEAELDINPDLWFFGCHFIGDPVMPGCLGLDAMWQLVGFYLGWLGGEGKGRALGVGEVKFTGQVLPTAKKVTYRIHFKRIVNRRLIMGLADGEVLVDGRLIYTASDLKVGLFQDTSAF

This assay concerns the target T1, Strep-LpxC (E. coli). Put plainly: affinity purification with mass spectrometry; Strep-LpxC overproduced in E. coli BL21 Δarg/Δlys grown at 30°C (slow), 37°C (medium) or 40°C (fast growth); Strep-tactin affinity purification from the lysate; co-purified proteins identified by LC-MS/MS with a super-SILAC standard; enriched >2-fold over the Strep-tag empty-vector control, p<0.05, or 'LpxC only'.
In the case of B1, the binding entry was “binds”.

B2: the binding result is “binds”.

In the case of B3, the binding entry is “binds”.

With B4, the binding result is on record as “binds”.

As to B5, the binding result was “binds”.

With B6, the binding result is reported as “binds”.

For the molecule B7, the binding result is listed as “binds”.

As to B8, the binding entry is “binds”.

With B9, the binding entry is given as “binds”.

On to B10, for which the binding result was “binds”.

On to B11, for which the binding result is given as “binds”.

In the case of B12, the binding entry is reported as “binds”.

B13: the binding result is recorded as “binds”.

Take B14: the binding result was “binds”.
